Values of other authors as cited in patent US20170209505A1, “Personal Care Composition Comprising A Hair Restorative Blend” (ELC Management LLC, priority 2016, published 2017).
For at least one compound, name, drawing or mass did not settle the structure.

Test system: hair loss
Conditions: used topically

Nc1cc(N2CCCCC2)nc(N)[n+]1[O-] [minoxidil]
failure rate: greater than 50%
